Experimental data as given in the supplement of paper PMC10849652.
The other results are listed elsewhere or left out.

Amino acid sequences for entries named in this document (tags omitted). A change or cut given only in a name is not applied to a line headed by its entry.
UniProt Q15293: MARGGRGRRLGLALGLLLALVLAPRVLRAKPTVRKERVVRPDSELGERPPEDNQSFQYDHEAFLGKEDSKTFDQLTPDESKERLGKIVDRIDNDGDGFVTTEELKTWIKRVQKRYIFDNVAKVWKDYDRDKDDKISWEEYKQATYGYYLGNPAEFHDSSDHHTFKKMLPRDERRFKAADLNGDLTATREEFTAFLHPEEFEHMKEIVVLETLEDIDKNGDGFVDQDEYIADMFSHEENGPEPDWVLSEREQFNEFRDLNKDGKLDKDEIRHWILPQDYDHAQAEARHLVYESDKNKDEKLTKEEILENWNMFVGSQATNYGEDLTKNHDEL
UniProt Q8TAC1: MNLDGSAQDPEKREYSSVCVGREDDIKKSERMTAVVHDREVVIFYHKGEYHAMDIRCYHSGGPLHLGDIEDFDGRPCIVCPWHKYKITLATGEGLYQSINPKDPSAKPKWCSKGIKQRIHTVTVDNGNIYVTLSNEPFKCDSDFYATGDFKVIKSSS
UniProt P35250, whole entry, looked up: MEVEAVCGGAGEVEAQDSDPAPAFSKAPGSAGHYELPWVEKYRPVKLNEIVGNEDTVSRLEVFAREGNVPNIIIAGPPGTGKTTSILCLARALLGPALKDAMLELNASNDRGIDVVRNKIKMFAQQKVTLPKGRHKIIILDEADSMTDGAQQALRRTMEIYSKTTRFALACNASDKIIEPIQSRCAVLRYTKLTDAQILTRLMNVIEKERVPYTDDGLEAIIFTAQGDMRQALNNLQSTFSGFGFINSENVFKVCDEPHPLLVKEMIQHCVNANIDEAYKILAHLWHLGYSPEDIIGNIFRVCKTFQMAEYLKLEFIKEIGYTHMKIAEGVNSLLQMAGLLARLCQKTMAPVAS
UniProt Q8N0T1: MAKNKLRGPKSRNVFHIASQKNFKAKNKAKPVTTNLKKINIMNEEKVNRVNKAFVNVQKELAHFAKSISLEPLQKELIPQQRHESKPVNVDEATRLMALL
UniProt Q969G6: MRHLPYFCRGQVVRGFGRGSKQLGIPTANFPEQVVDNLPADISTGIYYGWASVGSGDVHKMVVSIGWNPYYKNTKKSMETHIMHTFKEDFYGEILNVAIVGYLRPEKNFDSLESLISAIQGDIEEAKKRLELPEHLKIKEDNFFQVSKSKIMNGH
UniProt Q2KHR2: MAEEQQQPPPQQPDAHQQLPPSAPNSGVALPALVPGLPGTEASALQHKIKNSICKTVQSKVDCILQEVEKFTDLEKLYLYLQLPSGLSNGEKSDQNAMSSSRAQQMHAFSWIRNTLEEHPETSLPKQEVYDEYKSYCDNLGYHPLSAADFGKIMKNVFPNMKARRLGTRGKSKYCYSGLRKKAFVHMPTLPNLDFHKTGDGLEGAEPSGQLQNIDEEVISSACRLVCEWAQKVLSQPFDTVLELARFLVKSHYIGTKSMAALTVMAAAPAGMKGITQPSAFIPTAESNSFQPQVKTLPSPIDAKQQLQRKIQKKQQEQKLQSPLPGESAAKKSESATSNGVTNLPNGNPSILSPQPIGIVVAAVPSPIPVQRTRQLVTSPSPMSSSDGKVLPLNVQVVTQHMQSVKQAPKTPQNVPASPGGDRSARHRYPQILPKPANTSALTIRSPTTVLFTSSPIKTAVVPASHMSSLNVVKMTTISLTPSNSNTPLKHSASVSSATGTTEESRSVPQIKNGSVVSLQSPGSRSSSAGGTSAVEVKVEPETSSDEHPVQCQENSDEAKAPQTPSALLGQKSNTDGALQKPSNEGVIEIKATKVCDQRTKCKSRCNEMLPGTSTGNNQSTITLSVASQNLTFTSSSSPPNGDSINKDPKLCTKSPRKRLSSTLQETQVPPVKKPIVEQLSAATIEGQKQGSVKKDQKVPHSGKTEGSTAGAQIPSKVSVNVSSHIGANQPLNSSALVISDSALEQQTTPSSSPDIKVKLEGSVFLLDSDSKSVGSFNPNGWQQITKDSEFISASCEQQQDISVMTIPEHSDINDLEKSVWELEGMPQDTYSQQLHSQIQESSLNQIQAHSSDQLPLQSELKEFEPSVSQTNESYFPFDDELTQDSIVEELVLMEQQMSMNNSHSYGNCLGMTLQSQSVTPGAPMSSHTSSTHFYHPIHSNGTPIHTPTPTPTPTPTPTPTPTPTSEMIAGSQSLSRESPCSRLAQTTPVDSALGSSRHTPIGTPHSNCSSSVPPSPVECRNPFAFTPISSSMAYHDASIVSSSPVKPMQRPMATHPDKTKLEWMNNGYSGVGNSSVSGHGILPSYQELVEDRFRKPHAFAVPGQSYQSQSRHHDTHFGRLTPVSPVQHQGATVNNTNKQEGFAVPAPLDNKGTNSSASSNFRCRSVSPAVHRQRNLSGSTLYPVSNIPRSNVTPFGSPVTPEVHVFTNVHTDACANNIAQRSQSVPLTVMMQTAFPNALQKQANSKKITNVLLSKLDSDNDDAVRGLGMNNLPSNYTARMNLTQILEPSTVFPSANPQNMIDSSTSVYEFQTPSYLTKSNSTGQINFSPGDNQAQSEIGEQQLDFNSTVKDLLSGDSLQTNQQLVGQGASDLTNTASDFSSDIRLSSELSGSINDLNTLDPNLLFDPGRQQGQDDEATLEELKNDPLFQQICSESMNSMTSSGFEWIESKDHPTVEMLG
UniProt O14593: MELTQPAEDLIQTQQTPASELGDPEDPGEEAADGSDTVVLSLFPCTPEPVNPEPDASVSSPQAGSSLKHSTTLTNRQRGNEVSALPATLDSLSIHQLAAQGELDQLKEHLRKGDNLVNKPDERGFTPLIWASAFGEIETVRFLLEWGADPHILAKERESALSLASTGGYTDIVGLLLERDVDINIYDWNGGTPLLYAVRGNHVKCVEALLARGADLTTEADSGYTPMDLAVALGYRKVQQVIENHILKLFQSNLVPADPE
UniProt P20936: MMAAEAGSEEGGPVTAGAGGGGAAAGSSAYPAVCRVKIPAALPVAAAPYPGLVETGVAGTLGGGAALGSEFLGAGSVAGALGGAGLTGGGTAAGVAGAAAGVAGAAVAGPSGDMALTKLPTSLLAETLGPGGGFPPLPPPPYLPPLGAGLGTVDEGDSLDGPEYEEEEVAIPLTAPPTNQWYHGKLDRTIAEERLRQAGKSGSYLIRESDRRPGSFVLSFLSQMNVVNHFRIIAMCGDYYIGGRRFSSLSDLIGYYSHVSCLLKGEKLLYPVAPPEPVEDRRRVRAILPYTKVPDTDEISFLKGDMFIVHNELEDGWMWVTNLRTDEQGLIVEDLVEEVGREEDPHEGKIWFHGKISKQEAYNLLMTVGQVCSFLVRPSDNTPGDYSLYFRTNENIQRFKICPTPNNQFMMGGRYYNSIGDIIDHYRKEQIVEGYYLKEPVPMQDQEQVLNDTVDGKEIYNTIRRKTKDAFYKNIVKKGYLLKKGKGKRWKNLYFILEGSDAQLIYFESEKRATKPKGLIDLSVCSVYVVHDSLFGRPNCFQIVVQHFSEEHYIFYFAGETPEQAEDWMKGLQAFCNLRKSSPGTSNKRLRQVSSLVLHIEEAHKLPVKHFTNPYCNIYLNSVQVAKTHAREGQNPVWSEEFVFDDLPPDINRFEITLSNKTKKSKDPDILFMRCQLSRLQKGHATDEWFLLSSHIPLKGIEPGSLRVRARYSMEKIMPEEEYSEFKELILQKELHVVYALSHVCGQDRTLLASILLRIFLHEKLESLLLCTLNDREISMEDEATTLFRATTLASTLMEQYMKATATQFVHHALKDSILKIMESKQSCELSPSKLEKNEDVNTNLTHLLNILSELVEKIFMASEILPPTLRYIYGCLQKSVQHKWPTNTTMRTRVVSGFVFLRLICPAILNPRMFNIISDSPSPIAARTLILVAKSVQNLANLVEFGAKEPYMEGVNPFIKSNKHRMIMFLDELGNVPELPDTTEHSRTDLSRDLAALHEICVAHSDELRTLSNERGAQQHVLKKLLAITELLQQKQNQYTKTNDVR
UniProt P54136: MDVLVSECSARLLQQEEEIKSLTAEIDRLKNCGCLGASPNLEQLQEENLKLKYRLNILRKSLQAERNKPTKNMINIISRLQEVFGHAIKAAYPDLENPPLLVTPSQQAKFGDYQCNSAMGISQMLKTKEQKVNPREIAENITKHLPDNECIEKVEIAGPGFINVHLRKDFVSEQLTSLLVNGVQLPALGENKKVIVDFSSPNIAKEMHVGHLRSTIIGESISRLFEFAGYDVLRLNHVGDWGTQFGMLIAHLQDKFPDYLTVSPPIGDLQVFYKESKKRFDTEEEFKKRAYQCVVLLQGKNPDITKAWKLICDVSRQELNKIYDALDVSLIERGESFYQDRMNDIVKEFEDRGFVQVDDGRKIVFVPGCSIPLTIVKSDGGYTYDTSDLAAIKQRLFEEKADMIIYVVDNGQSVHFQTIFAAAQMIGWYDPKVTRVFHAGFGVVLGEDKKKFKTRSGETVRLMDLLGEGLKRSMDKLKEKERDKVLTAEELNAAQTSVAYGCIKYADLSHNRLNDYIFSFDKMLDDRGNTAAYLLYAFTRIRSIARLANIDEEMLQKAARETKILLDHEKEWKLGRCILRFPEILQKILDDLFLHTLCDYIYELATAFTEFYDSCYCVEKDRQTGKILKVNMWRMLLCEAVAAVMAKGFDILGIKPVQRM
UniProt O43665: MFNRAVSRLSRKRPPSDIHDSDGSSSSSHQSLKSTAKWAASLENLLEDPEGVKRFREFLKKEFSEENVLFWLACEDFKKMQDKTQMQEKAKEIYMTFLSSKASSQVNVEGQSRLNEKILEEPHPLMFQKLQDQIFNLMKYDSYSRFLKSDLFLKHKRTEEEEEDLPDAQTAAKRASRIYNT
UniProt Q9GZR2: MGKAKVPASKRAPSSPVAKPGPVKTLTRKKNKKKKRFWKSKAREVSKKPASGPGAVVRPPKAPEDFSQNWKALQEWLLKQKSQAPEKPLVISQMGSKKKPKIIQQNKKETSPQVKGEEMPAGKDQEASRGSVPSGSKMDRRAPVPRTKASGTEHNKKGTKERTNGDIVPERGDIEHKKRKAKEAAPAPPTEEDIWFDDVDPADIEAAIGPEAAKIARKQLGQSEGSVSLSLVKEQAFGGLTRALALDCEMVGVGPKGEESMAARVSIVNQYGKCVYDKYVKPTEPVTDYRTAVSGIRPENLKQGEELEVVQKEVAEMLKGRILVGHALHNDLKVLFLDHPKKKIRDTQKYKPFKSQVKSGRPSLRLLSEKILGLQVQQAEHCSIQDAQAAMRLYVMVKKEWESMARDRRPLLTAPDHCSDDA
UniProt O94761: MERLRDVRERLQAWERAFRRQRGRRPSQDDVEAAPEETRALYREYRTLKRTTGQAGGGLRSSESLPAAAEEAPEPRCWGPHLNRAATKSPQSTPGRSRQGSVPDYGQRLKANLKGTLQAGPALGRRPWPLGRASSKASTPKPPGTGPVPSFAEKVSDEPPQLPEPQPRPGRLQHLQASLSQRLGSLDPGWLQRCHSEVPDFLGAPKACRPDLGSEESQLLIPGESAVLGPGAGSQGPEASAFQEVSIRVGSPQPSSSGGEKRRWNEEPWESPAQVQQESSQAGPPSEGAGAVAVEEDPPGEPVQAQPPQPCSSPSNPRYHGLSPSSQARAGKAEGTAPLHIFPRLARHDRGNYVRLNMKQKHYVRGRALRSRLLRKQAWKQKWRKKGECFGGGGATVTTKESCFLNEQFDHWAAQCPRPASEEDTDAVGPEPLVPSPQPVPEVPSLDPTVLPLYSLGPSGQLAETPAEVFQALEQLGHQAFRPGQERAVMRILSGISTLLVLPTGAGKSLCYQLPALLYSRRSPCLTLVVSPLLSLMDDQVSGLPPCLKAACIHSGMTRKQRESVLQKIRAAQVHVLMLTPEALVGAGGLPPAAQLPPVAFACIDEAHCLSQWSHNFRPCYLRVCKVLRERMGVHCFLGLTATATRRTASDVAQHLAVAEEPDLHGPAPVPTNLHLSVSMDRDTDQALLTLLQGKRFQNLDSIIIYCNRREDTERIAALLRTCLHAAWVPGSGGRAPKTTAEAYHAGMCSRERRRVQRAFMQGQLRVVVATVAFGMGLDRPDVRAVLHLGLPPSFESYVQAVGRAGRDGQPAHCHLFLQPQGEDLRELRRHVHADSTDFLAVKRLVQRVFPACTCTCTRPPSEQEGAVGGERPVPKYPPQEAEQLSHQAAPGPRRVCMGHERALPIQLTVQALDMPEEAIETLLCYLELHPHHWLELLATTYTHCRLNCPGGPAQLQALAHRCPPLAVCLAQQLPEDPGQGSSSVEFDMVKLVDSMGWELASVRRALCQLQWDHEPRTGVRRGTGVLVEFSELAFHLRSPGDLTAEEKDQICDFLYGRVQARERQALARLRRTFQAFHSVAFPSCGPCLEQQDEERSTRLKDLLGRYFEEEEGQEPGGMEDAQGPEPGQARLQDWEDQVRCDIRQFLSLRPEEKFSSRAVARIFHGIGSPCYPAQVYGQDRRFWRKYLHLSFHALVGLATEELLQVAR

Assays:
Assay in all cases: log2 fold change, soluble protein after heating vs DMSO (PISA); higher = thermal stabilisation; K562 lysate, 10 uM; active = over 0.2 and 3.5 SD of the protein, either way, in both replicates (recomputed)
[1] = compound: C1=CC=C(C=C1)[C@H](COC2=CC3=C(C=C2)NC(=O)N3)NC(=O)C4=CC=CN(C4=O)CC5=CC(=C(C=C5)F)F
Method in brief: (§1)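 Thermal stability, expressed as log-two fold change relative to solvent controls, is given from duplicates. Crude K562 extract in PBS pH 7.4 with 1 mM MgCl2, at 1 mg/mL protein, was treated with 10 μM compound for 30 min and heated in aliquots for 3 min across 48°C-58°C. After pooling, adjustment to 0.5% NP-40 at 4°C and centrifugation at 21,000xg for 90 min, supernatant protein was measured by TMTpro 16plex LC-MS/MS with channel sums equalised.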

[2] = compound: CC1=C(SC2=C1C(=N[C@H](C3=NN=C(N32)C)CC(=O)N)C4=CC=C(C=C4)Cl)C
Method in brief: as §1

[3] = compound: CC1=C2C(=CC=C1)N=C(N(C2=O)C3=CC=CC=C3C)CN4C=NC5=C(N=CN=C54)N
Method in brief: as §1

[4] = compound: Cc1sc2c(c1C)C(c1ccc(Cl)cc1)=N[C@@H](CC(=O)OC(C)(C)C)c1nnc(C)n1-2
Method in brief: as §1

[5] = compound: c1ccc([C@@H]2C[C@H]2NC2CCNCC2)cc1
Method in brief: as §1

Measured: log2 fold change

RBM8A (UniProt Q9Y5S9)
inactive: [1] 0.066 | [2] 0.01 | [3] -0.061 | [4] 0.084 | [5] 0.171

RCN1 (UniProt Q15293)
inactive: [1] 0.014 | [2] 0.032 | [3] -0.003 | [4] -0.032 | [5] 0.007

RCCD1 (UniProt A6NED2)
inactive: [1] 0.105 | [2] 0.06 | [3] -0.004 | [4] 0.002 | [5] 0.002

RFESD isoform 2 (UniProt Q8TAC1)
inactive: [1] 0.006 | [2] -0.015 | [3] 0.048 | [4] -0.064 | [5] -0.089

RFX1 (UniProt P22670)
inactive: [1] -0.002 | [2] 0.085 | [3] 0.023 | [4] -0.006 | [5] 0.018

RFC2 (UniProt P35250)
inactive: [1] -0.009 | [2] 0.006 | [3] -0.008 | [4] 0.043 | [5] -0.033

RGP1 (UniProt Q92546)
inactive: [1] -0.005 | [2] -0.039 | [3] 0.055 | [4] 0.093 | [5] -0.197

RBIS (UniProt Q8N0T1)
inactive: [1] 0.091 | [2] -0.047 | [3] 0.056 | [4] 0.03 | [5] -0.126

RFK (UniProt Q969G6)
inactive: [1] -0.035 | [2] 0.008 | [3] 0.006 | [4] 0.009 | [5] 0.034

RFX7 (UniProt Q2KHR2)
inactive: [1] -0.035 | [2] 0.018 | [3] 0.134 | [4] -0.12 | [5] 0.008

RFXANK (UniProt O14593)
inactive: [1] -0.033 | [2] -0.043 | [3] -0.06 | [4] 0.022 | [5] 0.079

REPS1 (UniProt Q96D71)
inactive: [1] 0.021 | [2] 0.001 | [3] -0.022 | [4] -0.033 | [5] -0.035

RASA1 (UniProt P20936)
inactive: [1] -0.018 | [2] -0.009 | [3] -0.03 | [4] 0.036 | [5] 0.024

Quoted from the entries so far (6 entries):
RBIS (UniProt Q8N0T1)
inactive: [1] 0.091 | [2] -0.047 | [3] 0.056 | [4] 0.03 | [5] -0.126

RFK (UniProt Q969G6)
inactive: [1] -0.035 | [2] 0.008 | [3] 0.006 | [4] 0.009 | [5] 0.034

RFX7 (UniProt Q2KHR2)
inactive: [1] -0.035 | [2] 0.018 | [3] 0.134 | [4] -0.12 | [5] 0.008

RFXANK (UniProt O14593)
inactive: [1] -0.033 | [2] -0.043 | [3] -0.06 | [4] 0.022 | [5] 0.079

REPS1 (UniProt Q96D71)
inactive: [1] 0.021 | [2] 0.001 | [3] -0.022 | [4] -0.033 | [5] -0.035

RASA1 (UniProt P20936)
inactive: [1] -0.018 | [2] -0.009 | [3] -0.03 | [4] 0.036 | [5] 0.024

More entries:

RARS (UniProt P54136)
inactive: [1] -0.014 | [2] 0.038 | [3] 0.024 | [4] 0.028 | [5] 0.091

RGS10 (UniProt O43665)
inactive: [1] 0.016 | [2] 0.032 | [3] -0.002 | [4] 0.011 | [5] 0.019

RBM33 (UniProt Q96EV2)
inactive: [1] -0.028 | [2] -0.014 | [3] 0.052 | [4] -0.024 | [5] 0.025

RAPGEF6 isoform 4 (UniProt Q8TEU7)
inactive: [1] 0.008 | [2] -0.016 | [3] 0.004 | [4] -0.001 | [5] -0.03

REXO4 (UniProt Q9GZR2)
inactive: [1] 0.009 | [2] -0.003 | [3] 0.029 | [4] 0.051 | [5] 0.138

RBM15 (UniProt Q96T37)
inactive: [1] 0.16 | [2] 0.145 | [3] -0.033 | [4] 0.021 | [5] 0.199

RECQL4 (UniProt O94761)
inactive: [1] 0.002 | [2] -0.012 | [3] 0.073 | [4] -0.011 | [5] 0.154

RBPJ (UniProt Q06330)
inactive: [1] 0.044 | [2] -0.013 | [3] 0.036 | [4] -0.028 | [5] 0.003

RASA2 (UniProt Q15283)
inactive: [1] -0.07 | [2] 0.045 | [3] 0.058 | [4] 0.025 | [5] 0.037

RGPD5 (UniProt Q99666)
inactive: [1] -0.025 | [2] -0.02 | [3] -0.028 | [4] 0.023 | [5] -0.064

RBM25 (UniProt P49756)
inactive: [1] -0.092 | [2] 0.01 | [3] 0.077 | [4] 0.024 | [5] -0.031
